This note sets out measurements from paper PMC4062937.

Protein sequences, listed by entry. Tags and fused reporters are not part of them. Residues count along the entry.
UniProt Q13586, residues 23-685: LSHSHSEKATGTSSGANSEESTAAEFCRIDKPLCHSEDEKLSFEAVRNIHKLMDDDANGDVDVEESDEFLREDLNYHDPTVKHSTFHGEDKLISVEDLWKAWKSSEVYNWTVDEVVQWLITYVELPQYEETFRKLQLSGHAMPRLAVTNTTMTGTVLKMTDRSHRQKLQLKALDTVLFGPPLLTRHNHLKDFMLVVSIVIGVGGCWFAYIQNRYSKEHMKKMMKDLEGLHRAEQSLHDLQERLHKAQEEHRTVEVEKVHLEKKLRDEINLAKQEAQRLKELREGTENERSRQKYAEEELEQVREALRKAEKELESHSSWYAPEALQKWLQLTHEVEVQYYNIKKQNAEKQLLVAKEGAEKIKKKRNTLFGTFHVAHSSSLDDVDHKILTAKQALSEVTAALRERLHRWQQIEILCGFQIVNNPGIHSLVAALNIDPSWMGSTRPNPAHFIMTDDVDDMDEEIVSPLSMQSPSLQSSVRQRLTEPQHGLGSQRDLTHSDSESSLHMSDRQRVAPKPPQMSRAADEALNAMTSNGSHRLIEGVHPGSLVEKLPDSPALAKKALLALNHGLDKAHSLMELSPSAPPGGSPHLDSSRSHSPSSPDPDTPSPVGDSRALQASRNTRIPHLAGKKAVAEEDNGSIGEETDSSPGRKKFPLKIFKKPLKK
UniProt P35579: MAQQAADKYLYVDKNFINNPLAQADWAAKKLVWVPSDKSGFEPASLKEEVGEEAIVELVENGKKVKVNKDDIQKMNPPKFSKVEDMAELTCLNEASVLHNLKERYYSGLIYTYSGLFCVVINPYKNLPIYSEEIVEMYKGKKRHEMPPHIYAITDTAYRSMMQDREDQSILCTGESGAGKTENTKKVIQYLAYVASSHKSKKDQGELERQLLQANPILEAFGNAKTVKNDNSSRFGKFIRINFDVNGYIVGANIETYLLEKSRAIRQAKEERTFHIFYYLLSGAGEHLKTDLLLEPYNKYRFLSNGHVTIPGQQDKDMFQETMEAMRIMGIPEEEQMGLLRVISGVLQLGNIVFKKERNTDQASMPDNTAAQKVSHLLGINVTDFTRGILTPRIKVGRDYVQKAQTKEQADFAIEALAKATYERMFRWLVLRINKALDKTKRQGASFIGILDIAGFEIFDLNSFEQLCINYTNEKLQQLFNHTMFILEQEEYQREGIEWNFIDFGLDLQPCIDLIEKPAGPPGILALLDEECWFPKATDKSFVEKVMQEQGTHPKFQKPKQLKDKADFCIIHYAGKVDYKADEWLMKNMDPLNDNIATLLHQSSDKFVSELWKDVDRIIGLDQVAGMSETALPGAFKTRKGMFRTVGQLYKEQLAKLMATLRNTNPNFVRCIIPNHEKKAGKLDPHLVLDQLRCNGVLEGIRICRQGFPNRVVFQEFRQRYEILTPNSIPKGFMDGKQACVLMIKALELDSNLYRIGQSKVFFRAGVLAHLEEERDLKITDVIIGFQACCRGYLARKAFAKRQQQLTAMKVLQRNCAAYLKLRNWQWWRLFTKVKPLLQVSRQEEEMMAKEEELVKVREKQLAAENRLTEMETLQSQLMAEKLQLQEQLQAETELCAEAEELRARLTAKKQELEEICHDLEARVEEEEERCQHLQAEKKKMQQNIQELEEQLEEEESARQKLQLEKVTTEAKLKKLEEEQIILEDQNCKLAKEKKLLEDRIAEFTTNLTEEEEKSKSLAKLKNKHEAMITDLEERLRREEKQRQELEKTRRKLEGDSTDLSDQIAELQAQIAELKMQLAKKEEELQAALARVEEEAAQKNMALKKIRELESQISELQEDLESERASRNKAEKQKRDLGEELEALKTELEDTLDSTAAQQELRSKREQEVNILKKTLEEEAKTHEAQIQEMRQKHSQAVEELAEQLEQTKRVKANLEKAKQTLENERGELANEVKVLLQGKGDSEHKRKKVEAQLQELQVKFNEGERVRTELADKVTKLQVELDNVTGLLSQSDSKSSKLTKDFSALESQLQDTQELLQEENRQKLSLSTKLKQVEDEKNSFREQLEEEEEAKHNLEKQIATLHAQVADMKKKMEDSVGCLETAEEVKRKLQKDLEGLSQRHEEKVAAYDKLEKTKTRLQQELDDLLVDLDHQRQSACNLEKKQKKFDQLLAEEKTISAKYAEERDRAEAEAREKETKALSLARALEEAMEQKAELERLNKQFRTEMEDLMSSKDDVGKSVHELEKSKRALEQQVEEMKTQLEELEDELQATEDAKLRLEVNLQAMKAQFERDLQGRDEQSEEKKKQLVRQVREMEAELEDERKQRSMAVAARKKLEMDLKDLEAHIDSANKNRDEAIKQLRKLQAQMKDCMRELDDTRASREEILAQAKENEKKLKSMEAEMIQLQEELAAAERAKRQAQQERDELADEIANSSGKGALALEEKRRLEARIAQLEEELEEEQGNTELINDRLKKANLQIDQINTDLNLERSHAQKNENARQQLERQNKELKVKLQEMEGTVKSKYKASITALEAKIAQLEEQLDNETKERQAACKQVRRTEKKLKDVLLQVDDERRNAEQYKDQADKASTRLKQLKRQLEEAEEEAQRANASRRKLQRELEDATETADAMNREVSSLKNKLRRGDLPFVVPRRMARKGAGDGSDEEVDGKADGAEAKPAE
UniProt P07996, residues 19-1170: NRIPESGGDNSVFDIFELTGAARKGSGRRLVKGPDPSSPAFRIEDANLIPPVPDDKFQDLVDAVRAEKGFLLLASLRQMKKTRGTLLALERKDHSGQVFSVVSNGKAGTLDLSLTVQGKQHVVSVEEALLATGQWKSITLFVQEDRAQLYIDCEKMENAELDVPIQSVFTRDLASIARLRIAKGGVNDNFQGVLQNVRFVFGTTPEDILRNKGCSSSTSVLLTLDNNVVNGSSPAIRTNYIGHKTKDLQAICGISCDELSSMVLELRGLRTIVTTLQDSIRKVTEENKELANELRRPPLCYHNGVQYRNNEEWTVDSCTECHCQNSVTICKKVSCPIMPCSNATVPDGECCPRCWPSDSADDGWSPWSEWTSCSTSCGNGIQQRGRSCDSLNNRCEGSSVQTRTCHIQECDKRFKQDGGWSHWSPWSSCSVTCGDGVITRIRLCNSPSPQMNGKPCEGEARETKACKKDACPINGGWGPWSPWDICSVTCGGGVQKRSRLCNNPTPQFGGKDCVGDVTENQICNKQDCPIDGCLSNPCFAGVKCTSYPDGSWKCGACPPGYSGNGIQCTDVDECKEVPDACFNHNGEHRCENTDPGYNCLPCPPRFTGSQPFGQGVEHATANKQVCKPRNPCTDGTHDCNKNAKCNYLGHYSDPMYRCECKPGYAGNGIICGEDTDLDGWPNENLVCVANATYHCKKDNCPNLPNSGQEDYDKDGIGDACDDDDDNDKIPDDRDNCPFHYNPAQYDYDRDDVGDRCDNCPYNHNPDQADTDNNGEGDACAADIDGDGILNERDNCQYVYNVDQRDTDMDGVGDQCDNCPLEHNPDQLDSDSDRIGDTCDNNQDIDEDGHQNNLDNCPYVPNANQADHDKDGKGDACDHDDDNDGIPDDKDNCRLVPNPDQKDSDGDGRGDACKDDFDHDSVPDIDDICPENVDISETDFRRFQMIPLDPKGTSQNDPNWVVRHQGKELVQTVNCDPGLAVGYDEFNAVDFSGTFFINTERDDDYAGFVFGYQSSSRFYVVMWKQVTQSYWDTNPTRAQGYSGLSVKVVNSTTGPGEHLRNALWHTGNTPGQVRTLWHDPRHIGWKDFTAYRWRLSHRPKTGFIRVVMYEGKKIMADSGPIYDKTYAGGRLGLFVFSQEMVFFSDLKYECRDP

Assay [1] has as its target Stromal interaction molecule 1 (human (endogenous in platelets)) (UniProt Q13586). The assay can be described thus: co-IP; STIM1 immunoprecipitated with a C-terminal polyclonal STIM1 antibody from lysates of human platelets (1 x 10^9 cells/ml; resting or treated for 1 min with thrombin, CRP or TG); Western blotting of the immunoprecipitates. For orientation: In western blotting, separated proteins are transferred to a membrane and probed.

The target is the same in assay [2]. The assay is described as above. This is another data set of the same source.

Like-named read-outs stand apart in the source and are kept apart here. Results are given in words; binding and its absence hold for the method and conditions named. Binding seen in cells or lysates may run through a third protein. Some entries that bind do so weakly or less than the wild type.

With “Myosin-9, non-muscle (from UniProt P35579 1-1960)”, the binding result in assay [1] is “binds”.

Turning to “Thrombospondin-1 (from UniProt P07996 19-1170)”, the binding result in assay [1] was “binds”.

B1: TRPC3 (protein, UniProt Q13507 1-921)
chain: MSTKVRKCKEQARVTFPAPEEEEDEGEDEGAEPQRRRRGWRGVNGGLEPRSAPSQREPHGYCPPPFSHGPDLSMEGSPSLRRMTVMREKGRRQAVRGPAFMFNDRGTSLTAEEERFLDAAEYGNIPVVRKMLEESKTLNVNCVDYMGQNALQLAVGNEHLEVTELLLKKENLARIGDALLLAISKGYVRIVEAILNHPGFAASKRLTLSPCEQELQDDDFYAYDEDGTRFSPDITPIILAAHCQKYEVVHMLLMKGARIERPHDYFCKCGDCMEKQRHDSFSHSRSRINAYKGLASPAYLSLSSEDPVLTALELSNELAKLANIEKEFKNDYRKLSMQCKDFVVGVLDLCRDSEEVEAILNGDLESAEPLEVHRHKASLSRVKLAIKYEVKKFVAHPNCQQQLLTIWYENLSGLREQTIAIKCLVVLVVALGLPFLAIGYWIAPCSRLGKILRSPFMKFVAHAASFIIFLGLLVFNASDRFEGITTLPNITVTDYPKQIFRVKTTQFTWTEMLIMVWVLGMMWSECKELWLEGPREYILQLWNVLDFGMLSIFIAAFTARFLAFLQATKAQQYVDSYVQESDLSEVTLPPEIQYFTYARDKWLPSDPQIISEGLYAIAVVLSFSRIAYILPANESFGPLQISLGRTVKDIFKFMVLFIMVFFAFMIGMFILYSYYLGAKVNAAFTTVEESFKTLFWSIFGLSEVTSVVLKYDHKFIENIGYVLYGIYNVTMVVVLLNMLIAMINSSYQEIEDDSDVEWKFARSKLWLSYFDDGKTLPPPFSLVPSPKSFVYFIMRIVNFPKCRRRRLQKDIEMGMGNSKSRLNLFTQSNSRVFESHSFNSILNQPTRYQQIMKRLIKRYVLKAQVDKENDEVNEGELKEIKQDISSLRYELLEDKSQATEELAILIHKLSEKLNPSMLRCE
For the molecule B1, in assay [2], the binding entry was “no binding”.

B2: transient receptor potential canonical 6 (protein, UniProt Q9Y210 1-931)
chain: MSQSPAFGPRRGSSPRGAAGAAARRNESQDYLLMDSELGEDGCPQAPLPCYGYYPCFRGSDNRLAHRRQTVLREKGRRLANRGPAYMFSDRSTSLSIEEERFLDAAEYGNIPVVRKMLEECHSLNVNCVDYMGQNALQLAVANEHLEITELLLKKENLSRVGDALLLAISKGYVRIVEAILSHPAFAEGKRLATSPSQSELQQDDFYAYDEDGTRFSHDVTPIILAAHCQEYEIVHTLLRKGARIERPHDYFCKCNDCNQKQKHDSFSHSRSRINAYKGLASPAYLSLSSEDPVMTALELSNELAVLANIEKEFKNDYKKLSMQCKDFVVGLLDLCRNTEEVEAILNGDVETLQSGDHGRPNLSRLKLAIKYEVKKFVAHPNCQQQLLSIWYENLSGLRQQTMAVKFLVVLAVAIGLPFLALIYWFAPCSKMGKIMRGPFMKFVAHAASFTIFLGLLVMNAADRFEGTKLLPNETSTDNAKQLFRMKTSCFSWMEMLIISWVIGMIWAECKEIWTQGPKEYLFELWNMLDFGMLAIFAASFIARFMAFWHASKAQSIIDANDTLKDLTKVTLGDNVKYYNLARIKWDPSDPQIISEGLYAIAVVLSFSRIAYILPANESFGPLQISLGRTVKDIFKFMVIFIMVFVAFMIGMFNLYSYYIGAKQNEAFTTVEESFKTLFWAIFGLSEVKSVVINYNHKFIENIGYVLYGVYNVTMVIVLLNMLIAMINSSFQEIEDDADVEWKFARAKLWFSYFEEGRTLPVPFNLVPSPKSLFYLLLKLKKWISELFQGHKKGFQEDAEMNKINEEKKLGILGSHEDLSKLSLDKKQVGHNKQPSIRSSEDFHLNSFNNPPRQYQKIMKRLIKRYVLQAQIDKESDEVNEGELKEIKQDISSLRYELLEEKSQNTEDLAELIRELGEKLSMEPNQEETNR
Consider B2, for which the binding result in assay [2] was “no binding”.
